These are yes or no findings as the source states them, for the method shown. In cells and extracts the contact can be indirect. A yes stands for co-enrichment or nearness to the bait. Other partners may have been found.
Each molecule was assayed against eukaryotic initiation factor 4E (eIF4E), cap-binding protein (mouse (endogenous in BV-2)) (UniProt P63073) (assay: affinity purification with mass spectrometry; m7GTP-Sepharose enrichment of eIF4E-containing cap-binding complexes from SILAC-labelled BV-2 cells, mock (0 h), 4 h and 9 h after MNV infection (MOI 10); samples combined, SDS-PAGE, in-gel trypsin, LC-MS/MS; three biological replicates).

Amino acid sequences for entries named in this document (tags omitted).
UniProt P63073: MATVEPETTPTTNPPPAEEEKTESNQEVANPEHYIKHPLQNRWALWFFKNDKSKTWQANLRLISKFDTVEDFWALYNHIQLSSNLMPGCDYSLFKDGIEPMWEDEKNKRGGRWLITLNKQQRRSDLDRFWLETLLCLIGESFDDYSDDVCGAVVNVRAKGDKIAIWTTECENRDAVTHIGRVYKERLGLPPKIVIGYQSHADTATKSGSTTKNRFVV
UniProt P10630: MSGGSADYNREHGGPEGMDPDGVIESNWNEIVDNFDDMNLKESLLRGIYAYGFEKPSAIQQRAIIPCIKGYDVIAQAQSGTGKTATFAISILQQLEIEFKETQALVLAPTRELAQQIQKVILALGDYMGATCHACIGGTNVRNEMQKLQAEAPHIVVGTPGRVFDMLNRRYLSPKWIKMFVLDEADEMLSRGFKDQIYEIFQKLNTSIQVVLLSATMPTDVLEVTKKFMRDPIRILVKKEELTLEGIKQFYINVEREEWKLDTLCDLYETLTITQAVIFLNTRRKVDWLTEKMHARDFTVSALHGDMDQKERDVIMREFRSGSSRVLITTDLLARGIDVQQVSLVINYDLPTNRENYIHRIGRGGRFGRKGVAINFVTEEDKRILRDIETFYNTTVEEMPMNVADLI
UniProt Q80XI3: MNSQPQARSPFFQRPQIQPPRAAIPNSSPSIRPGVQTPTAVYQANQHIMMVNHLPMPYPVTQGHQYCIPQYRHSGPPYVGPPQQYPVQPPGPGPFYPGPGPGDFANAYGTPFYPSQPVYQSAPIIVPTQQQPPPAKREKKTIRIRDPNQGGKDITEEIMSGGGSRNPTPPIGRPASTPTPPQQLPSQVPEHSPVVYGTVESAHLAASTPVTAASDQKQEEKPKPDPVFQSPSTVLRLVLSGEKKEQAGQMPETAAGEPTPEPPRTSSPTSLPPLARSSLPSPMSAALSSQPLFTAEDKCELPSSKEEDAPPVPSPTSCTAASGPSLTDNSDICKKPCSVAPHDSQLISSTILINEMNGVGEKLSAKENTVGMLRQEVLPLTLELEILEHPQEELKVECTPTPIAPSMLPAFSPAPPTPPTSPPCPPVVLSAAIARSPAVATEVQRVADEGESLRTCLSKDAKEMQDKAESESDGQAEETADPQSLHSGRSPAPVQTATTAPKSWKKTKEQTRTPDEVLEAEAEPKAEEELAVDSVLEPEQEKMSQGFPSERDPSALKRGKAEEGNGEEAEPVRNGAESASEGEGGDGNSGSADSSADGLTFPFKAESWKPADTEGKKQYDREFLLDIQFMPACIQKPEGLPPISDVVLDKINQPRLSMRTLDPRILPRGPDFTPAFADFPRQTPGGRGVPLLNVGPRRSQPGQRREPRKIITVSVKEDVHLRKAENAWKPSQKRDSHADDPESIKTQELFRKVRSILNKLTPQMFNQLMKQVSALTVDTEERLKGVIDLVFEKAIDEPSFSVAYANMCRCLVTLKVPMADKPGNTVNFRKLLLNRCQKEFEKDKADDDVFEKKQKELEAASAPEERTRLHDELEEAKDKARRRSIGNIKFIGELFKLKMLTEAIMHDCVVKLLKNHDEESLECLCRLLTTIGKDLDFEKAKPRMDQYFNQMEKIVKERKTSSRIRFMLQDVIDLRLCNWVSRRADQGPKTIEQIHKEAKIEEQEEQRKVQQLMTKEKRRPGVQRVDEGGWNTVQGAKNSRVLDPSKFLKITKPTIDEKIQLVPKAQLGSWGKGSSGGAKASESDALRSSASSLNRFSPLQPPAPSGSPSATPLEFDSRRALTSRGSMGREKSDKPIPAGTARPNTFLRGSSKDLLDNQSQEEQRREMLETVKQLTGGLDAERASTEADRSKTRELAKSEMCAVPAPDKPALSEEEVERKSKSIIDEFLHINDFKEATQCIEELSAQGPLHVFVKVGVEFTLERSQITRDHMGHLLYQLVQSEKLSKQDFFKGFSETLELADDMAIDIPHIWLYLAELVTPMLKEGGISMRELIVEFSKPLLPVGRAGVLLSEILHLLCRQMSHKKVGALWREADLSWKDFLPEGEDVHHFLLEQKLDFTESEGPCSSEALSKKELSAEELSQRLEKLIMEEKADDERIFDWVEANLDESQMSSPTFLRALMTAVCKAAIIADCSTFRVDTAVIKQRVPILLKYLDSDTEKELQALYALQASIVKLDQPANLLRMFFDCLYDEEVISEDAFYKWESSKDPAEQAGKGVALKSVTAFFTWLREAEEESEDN

Row | binding | Molecule
1 | binds | eIF4AII isoform of eIF4A (from UniProt P10630 1-407)
2 | binds | eIF4GII (eIF4G3), the ~170 kDa long form (from UniProt Q80XI3 1-1579)
3 | binds | Dap5 (eIF4G2), the ~100 kDa short form (protein, UniProt Q62448 1-906) MESAIAEGGASRFSASSGGGGSRGAPQHYPKTAGNSEFLGKTPGQNAQKWIPARSTRRDDNSAANNSANEKERHDAIFRKVRGILNKLTPEKFDKLCLELLNVGVESKLILKGVILLIVDKALEEPKYSSLYAQLCLRLAEDAPNFDGPAAEGQPGQKQSTTFRRLLISKLQDEFENRTRNVDVYDKRENPLLPEEEEQRAIAKIKMLGNIKFIGELGKLDLIHESILHKCIKTLLEKKKRVQLKDMGEDLECLCQIMRTVGPRLDHERAKSLMDQYFARMCSLMLSKELPARIRFLLQDTVELREHHWVPRKAFLDNGPKTINQIRQDAVKDLGVFIPAPMAQGRSDFFLEGPFMPPRMKMDRDPLGGLADMFGQMPGSGIGTGPGVIQDRFSPTMGRHRSNQLFNGHGGHIMPPTQSQFGEMGGKFMKSQGLSQLYHNQSQGLLSQLQGQSKDMPPRFSKKGQLNADEISLRPAQSFLMNKNQVPKLQPQITMIPPSAQPPRTQTPPLGQTPQLGLKTNPPLIQEKPAKTSKKPPPSKEELLKLTEAVVTDYLNSGNANDAVSGVREMRAPKHFLPEMLSKVIILSLDRSDEDKEKASSLISLLKQEGIATSDNFMQAFLNVLEQCPKLEVDIPLVKSYLAQFAARAIISELVSISELAQPLESGTHFPLFLLCLQQLAKLQDREWLTELFQQSKVNMQKMLPEIDQNKDRMLEILEGKGLSFLFPLLKLEKELLKQIKLDPSPQTIYKWIKDNISPKLHVDKGFVNILMTSFLQYISSEVSPPSDETDSSSAPSKEQLEQEKQLLLSFKPVMQKFLHDHVDLQVSALYALQVHCYNSSFPKGMLLRFFVHFYDMEIIEEEAFLAWKEDITQEFPGKGKALFQVNQWLTWLETAEEEESEEEAD

— PMC5393397
